The supplement of paper PMC12823440, “Inhibitors supercharge kinase turnover through native proteolytic circuits” (Nature, 2025)
Counter-ions that a name gives are not always drawn. The list shows a part of the results. The calls rarely recur for the same compound in another form.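 Kinases, fused to nanoluciferase, were expressed in K562 cells; luminescence was measured every 4 h from 2 to 18 h as percent of control (DMSO = 100%, positive control = 0%). A time point is decreased if signal falls significantly (2 sigma). Hits were called by the authors by a rule that is not shown; the count of time points alone does not decide it.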

Sequences of proteins named here, by UniProt entry; tags and fusion partners are left off. A change or cut given only in a name is not applied to a line headed by its entry.
UniProt Q16620, whole entry, looked up: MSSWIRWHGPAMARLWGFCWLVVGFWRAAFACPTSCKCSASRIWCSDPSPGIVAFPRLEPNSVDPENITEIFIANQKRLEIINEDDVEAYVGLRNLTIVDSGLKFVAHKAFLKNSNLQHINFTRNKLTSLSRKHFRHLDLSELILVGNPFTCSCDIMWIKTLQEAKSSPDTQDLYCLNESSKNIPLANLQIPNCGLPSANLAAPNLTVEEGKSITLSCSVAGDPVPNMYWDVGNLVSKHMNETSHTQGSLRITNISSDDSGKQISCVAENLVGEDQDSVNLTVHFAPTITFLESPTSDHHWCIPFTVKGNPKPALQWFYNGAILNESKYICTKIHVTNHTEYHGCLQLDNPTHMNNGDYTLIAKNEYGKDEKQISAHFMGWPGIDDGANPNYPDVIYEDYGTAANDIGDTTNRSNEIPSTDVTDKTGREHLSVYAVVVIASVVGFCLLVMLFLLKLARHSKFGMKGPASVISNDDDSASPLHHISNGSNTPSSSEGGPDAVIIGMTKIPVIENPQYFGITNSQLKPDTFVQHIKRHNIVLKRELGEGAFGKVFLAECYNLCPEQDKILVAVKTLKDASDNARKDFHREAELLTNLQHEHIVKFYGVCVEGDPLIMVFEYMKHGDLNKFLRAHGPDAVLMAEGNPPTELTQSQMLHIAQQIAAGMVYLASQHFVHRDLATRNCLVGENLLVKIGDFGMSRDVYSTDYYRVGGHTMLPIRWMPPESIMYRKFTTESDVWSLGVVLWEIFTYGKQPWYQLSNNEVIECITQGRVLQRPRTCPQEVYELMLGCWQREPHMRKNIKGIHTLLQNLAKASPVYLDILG
UniProt Q16288, whole entry, looked up: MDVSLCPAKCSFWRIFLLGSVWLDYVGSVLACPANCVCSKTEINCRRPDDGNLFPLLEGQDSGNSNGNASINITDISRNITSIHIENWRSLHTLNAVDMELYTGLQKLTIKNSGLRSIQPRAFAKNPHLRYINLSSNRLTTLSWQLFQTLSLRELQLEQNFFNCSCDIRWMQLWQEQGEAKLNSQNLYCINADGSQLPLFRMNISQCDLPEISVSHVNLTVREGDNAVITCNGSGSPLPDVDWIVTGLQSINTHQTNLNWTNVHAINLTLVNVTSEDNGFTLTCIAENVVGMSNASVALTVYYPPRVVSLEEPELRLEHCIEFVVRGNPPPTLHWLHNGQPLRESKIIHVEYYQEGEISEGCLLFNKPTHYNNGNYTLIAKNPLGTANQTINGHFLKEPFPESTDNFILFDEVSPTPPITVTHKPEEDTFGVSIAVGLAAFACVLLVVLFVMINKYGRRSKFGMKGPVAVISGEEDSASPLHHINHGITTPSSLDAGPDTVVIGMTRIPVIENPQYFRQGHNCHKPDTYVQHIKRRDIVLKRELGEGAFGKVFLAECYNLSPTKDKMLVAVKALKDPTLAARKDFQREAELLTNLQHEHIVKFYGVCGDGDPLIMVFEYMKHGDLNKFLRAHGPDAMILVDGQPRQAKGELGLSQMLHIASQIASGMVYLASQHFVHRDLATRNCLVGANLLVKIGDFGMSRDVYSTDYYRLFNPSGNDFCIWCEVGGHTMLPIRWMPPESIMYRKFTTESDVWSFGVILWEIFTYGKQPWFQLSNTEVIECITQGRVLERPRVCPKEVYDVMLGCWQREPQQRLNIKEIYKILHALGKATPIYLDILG
UniProt P09619, whole entry: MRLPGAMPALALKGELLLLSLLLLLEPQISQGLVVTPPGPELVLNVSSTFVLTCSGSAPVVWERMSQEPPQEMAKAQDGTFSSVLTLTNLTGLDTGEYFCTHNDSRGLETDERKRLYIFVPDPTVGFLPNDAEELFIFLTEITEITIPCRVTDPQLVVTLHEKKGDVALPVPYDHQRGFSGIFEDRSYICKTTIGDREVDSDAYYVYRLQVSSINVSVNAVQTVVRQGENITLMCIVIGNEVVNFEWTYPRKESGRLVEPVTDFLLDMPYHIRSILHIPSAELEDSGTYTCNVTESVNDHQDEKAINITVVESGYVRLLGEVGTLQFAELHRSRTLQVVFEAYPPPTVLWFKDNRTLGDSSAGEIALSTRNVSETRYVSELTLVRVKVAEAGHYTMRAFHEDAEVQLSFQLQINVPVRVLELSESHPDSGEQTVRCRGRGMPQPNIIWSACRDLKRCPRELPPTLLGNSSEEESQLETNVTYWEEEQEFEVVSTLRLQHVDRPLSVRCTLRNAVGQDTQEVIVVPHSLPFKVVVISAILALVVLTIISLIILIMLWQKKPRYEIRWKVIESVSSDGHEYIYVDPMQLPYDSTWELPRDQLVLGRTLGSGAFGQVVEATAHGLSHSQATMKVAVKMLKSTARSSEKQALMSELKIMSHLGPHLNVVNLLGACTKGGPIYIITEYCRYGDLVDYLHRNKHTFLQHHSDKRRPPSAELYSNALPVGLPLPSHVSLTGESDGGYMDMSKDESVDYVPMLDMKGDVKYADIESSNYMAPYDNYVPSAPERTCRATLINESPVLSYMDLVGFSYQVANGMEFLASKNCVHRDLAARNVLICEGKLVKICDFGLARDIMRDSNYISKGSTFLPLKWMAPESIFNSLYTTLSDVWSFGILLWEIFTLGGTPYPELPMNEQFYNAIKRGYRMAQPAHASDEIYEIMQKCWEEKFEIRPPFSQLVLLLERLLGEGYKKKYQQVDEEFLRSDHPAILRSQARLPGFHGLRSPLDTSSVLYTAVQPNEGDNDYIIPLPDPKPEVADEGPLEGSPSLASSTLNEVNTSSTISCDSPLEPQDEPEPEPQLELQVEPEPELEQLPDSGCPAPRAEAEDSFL
UniProt Q15118, whole entry, looked up: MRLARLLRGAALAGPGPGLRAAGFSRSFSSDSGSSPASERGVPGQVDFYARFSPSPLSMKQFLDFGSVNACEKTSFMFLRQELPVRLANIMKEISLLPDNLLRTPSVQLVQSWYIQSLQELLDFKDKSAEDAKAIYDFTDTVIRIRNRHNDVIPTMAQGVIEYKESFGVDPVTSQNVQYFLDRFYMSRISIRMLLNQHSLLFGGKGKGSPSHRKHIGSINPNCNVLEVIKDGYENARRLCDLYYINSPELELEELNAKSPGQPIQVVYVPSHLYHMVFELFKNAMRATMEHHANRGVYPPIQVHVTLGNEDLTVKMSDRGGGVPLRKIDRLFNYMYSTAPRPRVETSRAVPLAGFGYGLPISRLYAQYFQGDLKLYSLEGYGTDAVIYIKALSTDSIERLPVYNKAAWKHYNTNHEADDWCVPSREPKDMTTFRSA
UniProt Q9UBF8: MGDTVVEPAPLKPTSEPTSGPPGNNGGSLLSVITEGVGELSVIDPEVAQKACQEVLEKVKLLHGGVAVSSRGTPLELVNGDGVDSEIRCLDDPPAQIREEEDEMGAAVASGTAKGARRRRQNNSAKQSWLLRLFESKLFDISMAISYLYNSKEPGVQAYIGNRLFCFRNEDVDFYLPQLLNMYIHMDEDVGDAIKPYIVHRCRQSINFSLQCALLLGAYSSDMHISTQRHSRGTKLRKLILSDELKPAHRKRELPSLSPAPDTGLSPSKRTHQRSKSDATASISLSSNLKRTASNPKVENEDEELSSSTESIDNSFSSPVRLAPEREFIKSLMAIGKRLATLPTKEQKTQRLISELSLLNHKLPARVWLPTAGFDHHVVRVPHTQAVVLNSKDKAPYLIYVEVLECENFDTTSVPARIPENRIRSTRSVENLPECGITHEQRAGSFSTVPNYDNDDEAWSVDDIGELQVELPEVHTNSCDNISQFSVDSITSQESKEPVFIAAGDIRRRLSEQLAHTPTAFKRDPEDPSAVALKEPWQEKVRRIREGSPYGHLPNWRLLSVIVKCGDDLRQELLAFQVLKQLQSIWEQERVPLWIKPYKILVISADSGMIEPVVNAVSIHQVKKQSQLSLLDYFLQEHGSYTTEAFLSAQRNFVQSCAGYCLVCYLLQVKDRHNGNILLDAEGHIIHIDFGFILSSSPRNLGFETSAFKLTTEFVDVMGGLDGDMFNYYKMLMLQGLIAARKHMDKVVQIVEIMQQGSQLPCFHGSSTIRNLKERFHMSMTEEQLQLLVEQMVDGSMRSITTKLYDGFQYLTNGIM
UniProt P53350, whole entry: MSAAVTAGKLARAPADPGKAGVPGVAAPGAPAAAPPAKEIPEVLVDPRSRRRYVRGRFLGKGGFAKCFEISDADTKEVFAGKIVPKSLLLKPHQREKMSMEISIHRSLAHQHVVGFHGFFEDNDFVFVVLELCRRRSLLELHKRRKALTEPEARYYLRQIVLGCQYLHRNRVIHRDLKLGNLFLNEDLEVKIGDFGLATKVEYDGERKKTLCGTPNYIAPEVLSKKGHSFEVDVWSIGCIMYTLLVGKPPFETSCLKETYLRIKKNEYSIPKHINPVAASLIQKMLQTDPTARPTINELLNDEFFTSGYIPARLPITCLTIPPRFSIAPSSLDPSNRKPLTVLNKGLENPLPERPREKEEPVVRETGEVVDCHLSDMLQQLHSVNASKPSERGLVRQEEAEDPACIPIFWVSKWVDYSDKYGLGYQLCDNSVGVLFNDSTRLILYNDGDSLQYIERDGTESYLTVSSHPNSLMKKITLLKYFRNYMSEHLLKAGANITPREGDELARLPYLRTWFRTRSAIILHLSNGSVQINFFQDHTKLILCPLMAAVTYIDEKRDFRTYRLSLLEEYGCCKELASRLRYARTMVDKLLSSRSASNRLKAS
UniProt Q05397, whole entry, looked up: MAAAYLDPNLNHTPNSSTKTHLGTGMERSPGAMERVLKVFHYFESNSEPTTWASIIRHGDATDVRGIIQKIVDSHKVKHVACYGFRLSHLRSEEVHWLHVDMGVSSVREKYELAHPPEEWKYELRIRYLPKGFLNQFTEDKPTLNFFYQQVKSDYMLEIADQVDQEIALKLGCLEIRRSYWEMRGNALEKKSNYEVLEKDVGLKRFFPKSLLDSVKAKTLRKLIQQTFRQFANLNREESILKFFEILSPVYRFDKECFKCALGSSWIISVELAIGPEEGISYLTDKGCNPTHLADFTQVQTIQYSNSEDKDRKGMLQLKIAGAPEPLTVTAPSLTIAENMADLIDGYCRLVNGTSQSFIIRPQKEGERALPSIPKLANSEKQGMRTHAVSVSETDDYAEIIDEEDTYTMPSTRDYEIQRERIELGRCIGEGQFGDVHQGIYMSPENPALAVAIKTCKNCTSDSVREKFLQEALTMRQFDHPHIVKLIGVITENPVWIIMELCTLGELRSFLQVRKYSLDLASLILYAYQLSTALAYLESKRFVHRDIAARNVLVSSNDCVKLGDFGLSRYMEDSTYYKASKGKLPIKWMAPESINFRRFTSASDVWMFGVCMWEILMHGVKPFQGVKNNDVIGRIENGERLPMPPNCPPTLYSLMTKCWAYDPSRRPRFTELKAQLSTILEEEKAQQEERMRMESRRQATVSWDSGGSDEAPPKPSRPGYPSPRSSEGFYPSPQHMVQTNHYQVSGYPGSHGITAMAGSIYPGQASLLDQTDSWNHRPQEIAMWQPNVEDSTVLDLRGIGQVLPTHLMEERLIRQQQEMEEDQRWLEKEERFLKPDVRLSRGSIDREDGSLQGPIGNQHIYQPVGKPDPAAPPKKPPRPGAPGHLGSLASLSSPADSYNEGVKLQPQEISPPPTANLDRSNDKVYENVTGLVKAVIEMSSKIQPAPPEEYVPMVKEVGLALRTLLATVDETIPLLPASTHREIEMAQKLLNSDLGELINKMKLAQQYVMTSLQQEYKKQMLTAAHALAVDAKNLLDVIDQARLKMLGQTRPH

What was measured:
Assay in all cases: kinase-Nluc reporter destabilization hit call (1 = scored as downregulated) (binary); higher = compound decreases kinase abundance
Conditions in all cases: K562; 2-18 h
MAPK1 = MAPK1 (UniProt P28482)
MAPK4 = MAPK4 (UniProt P31152)
MAPKAPK2 = MAPKAPK2 (UniProt P49137)
MKNK1 = MKNK1 (UniProt Q9BUB5)
NTRK2 = NTRK2 (UniProt Q16620)
NTRK3 = NTRK3 (UniProt Q16288)
PAK4 = PAK4 (UniProt O96013)
PBK = PBK (UniProt Q96KB5)
PDGFRB = PDGFRB (UniProt P09619)
PDK1 = PDK1 (UniProt Q15118)
PDPK1 = PDPK1 (UniProt O15530)
PIK4CA = PIK4CA (UniProt P42356)
PIK4CB = PIK4CB (UniProt Q9UBF8)
PLK1 = PLK1 (UniProt P53350)
PRKAA1 = PRKAA1 (UniProt Q13131)
PRKCA = PRKCA (UniProt P17252)
PTK2 = PTK2 (UniProt Q05397)
PTK2B = PTK2B (UniProt Q14289)
RAF1 = RAF1 (UniProt P04049)
[1] = target: RAF1_S257L (clone: RAF1_mut) (UniProt P04049)

Measured: kinase-Nluc reporter destabilization hit call

O=c1ccoc2cc(O)ccc12 [7-Hydroxy-4H-chromen-4-one] (10 µM)
inactive: MAPK1 = 0 | MAPK4 = 0 | MAPKAPK2 = 0 | MKNK1 = 0 | NTRK2 = 0 | NTRK3 = 0 | PAK4 = 0 | PBK 0 | PDGFRB 0 | PDK1 = 0 | PDPK1 = 0 | PIK4CA 0 | PIK4CB 0 | PLK1 = 0 | PRKAA1 = 0 | PRKCA 0 | PTK2 = 0 | PTK2B 0 | RAF1 = 0 | [1] 0

O=[N+]([O-])c1ccc(Sc2cccc[n+]2[O-])c2nonc12 (2.5 µM)
inactive: MAPK1 = 0 | MAPK4 = 0 | MAPKAPK2 = 0 | MKNK1 = 0 | NTRK2 = 0 | NTRK3 = 0 | PAK4 = 0 | PBK 0 | PDGFRB 0 | PDK1 = 0 | PDPK1 = 0 | PIK4CA 0 | PIK4CB 0 | PLK1 = 0 | PRKAA1 = 0 | PRKCA 0 | PTK2 = 0 | PTK2B 0 | RAF1 = 0 | [1] 0

C[C@@H]1C[C@H]2O[C@@]3(O[C@@H]2C(C)(C)O)[C@H](O)[C@@]2(C)[C@@H]4CC[C@H]5C(C)(C)[C@@H](O[C@@H]6OC[C@H](O)[C@H](O)[C@H]6O)CC[C@@]56C[C@@]46CC[C@]2(C)[C@@H]13 [Cimiracemoside C] (10 µM)
inactive: MAPK1 = 0 | MAPK4 = 0 | MAPKAPK2 = 0 | MKNK1 = 0 | NTRK2 = 0 | NTRK3 = 0 | PAK4 = 0 | PBK 0 | PDGFRB 0 | PDK1 = 0 | PDPK1 = 0 | PIK4CA 0 | PIK4CB 0 | PLK1 = 0 | PRKAA1 = 0 | PRKCA 0 | PTK2 = 0 | PTK2B 0 | RAF1 = 0 | [1] 0

CCN1C(=O)CNc2ncc(-c3ccc(-c4nc[nH]n4)nc3C)nc21 [CC-115 (hydrochloride)] (2.5 µM)
inactive: MAPK1 = 0 | MAPK4 = 0 | MAPKAPK2 = 0 | MKNK1 = 0 | NTRK2 = 0 | NTRK3 = 0 | PAK4 = 0 | PBK 0 | PDGFRB 0 | PDK1 = 0 | PDPK1 = 0 | PIK4CA 0 | PIK4CB 0 | PLK1 = 0 | PRKAA1 = 0 | PRKCA 0 | PTK2 = 0 | PTK2B 0 | RAF1 = 0 | [1] 0

CCOc1nc(Nc2ccc(C(=O)N3CCOCC3)cc2OC)nc2[nH]ccc12 [LRRK2 inhibitor 1] (2.5 µM)
inactive: MAPK1 = 0 | MAPK4 = 0 | MAPKAPK2 = 0 | MKNK1 = 0 | NTRK2 = 0 | NTRK3 = 0 | PAK4 = 0 | PBK 0 | PDGFRB 0 | PDK1 = 0 | PDPK1 = 0 | PIK4CA 0 | PIK4CB 0 | PLK1 = 0 | PRKAA1 = 0 | PRKCA 0 | PTK2 = 0 | PTK2B 0 | RAF1 = 0 | [1] 0

COC(=O)[C@@]1(C)CC[C@]2(C(=O)O)CC[C@]3(C)C(=CC[C@@H]4[C@@]5(C)C[C@H](O)[C@H](O[C@@H]6OC[C@@H](O[C@@H]7O[C@H](CO)[C@@H](O)[C@H](O)[C@H]7O)[C@H](O)[C@H]6O)[C@@](C)(CO)[C@@H]5CC[C@]43C)[C@@H]2C1 [Esculentoside A] (10 µM)
inactive: MAPK1 = 0 | MAPK4 = 0 | MAPKAPK2 = 0 | MKNK1 = 0 | NTRK2 = 0 | NTRK3 = 0 | PAK4 = 0 | PBK 0 | PDGFRB 0 | PDK1 = 0 | PDPK1 = 0 | PIK4CA 0 | PIK4CB 0 | PLK1 = 0 | PRKAA1 = 0 | PRKCA 0 | PTK2 = 0 | PTK2B 0 | RAF1 = 0 | [1] 0

CN1C(=O)NC(Cc2c[nH]c3c(Cl)cccc23)C1=O (racemic) [Necrostatin 2 (racemate)] (10 µM)
inactive: MAPK1 = 0 | MAPK4 = 0 | MAPKAPK2 = 0 | MKNK1 = 0 | NTRK2 = 0 | NTRK3 = 0 | PAK4 = 0 | PBK 0 | PDGFRB 0 | PDK1 = 0 | PDPK1 = 0 | PIK4CA 0 | PIK4CB 0 | PLK1 = 0 | PRKAA1 = 0 | PRKCA 0 | PTK2 = 0 | PTK2B 0 | RAF1 = 0 | [1] 0

3 compounds already listed, arranged by molar mass, high to low.
CCOc1nc(Nc2ccc(C(=O)N3CCOCC3)cc2OC)nc2[nH]ccc12 [LRRK2 inhibitor 1] (2.5 µM)
inactive: MAPK1 = 0 | MAPK4 = 0 | MAPKAPK2 = 0 | MKNK1 = 0 | NTRK2 = 0 | NTRK3 = 0 | PAK4 = 0 | PBK 0 | PDGFRB 0 | PDK1 = 0 | PDPK1 = 0 | PIK4CA 0 | PIK4CB 0 | PLK1 = 0 | PRKAA1 = 0 | PRKCA 0 | PTK2 = 0 | PTK2B 0 | RAF1 = 0 | [1] 0

CCN1C(=O)CNc2ncc(-c3ccc(-c4nc[nH]n4)nc3C)nc21 [CC-115 (hydrochloride)] (2.5 µM)
inactive: MAPK1 = 0 | MAPK4 = 0 | MAPKAPK2 = 0 | MKNK1 = 0 | NTRK2 = 0 | NTRK3 = 0 | PAK4 = 0 | PBK 0 | PDGFRB 0 | PDK1 = 0 | PDPK1 = 0 | PIK4CA 0 | PIK4CB 0 | PLK1 = 0 | PRKAA1 = 0 | PRKCA 0 | PTK2 = 0 | PTK2B 0 | RAF1 = 0 | [1] 0

CN1C(=O)NC(Cc2c[nH]c3c(Cl)cccc23)C1=O (racemic) [Necrostatin 2 (racemate)] (10 µM)
inactive: MAPK1 = 0 | MAPK4 = 0 | MAPKAPK2 = 0 | MKNK1 = 0 | NTRK2 = 0 | NTRK3 = 0 | PAK4 = 0 | PBK 0 | PDGFRB 0 | PDK1 = 0 | PDPK1 = 0 | PIK4CA 0 | PIK4CB 0 | PLK1 = 0 | PRKAA1 = 0 | PRKCA 0 | PTK2 = 0 | PTK2B 0 | RAF1 = 0 | [1] 0

Next part:

OCCN(CCO)c1ccc(C(c2ccc(Cl)cc2)c2ccc(N(CCO)CCO)cc2)cc1 (10 µM)
inactive: MAPK1 = 0 | MAPK4 = 0 | MAPKAPK2 = 0 | MKNK1 = 0 | NTRK2 = 0 | NTRK3 = 0 | PAK4 = 0 | PBK 0 | PDGFRB 0 | PDK1 = 0 | PDPK1 = 0 | PIK4CA 0 | PIK4CB 0 | PLK1 = 0 | PRKAA1 = 0 | PRKCA 0 | PTK2 = 0 | PTK2B 0 | RAF1 = 0 | [1] 0

COc1ccc2c(c1OC)OC1c3ccc(O)cc3OCC21 (stereo not given) [Methylnissolin] (10 µM)
inactive: MAPK1 = 0 | MAPK4 = 0 | MAPKAPK2 = 0 | MKNK1 = 0 | NTRK2 = 0 | NTRK3 = 0 | PAK4 = 0 | PBK 0 | PDGFRB 0 | PDK1 = 0 | PDPK1 = 0 | PIK4CA 0 | PIK4CB 0 | PLK1 = 0 | PRKAA1 = 0 | PRKCA 0 | PTK2 = 0 | PTK2B 0 | RAF1 = 0 | [1] 0

CNC(=O)c1ccc(-c2cnc3cnc(-c4ccccc4)cn23)cc1 (10 µM)
inactive: MAPK1 = 0 | MAPK4 = 0 | MAPKAPK2 = 0 | MKNK1 = 0 | NTRK2 = 0 | NTRK3 = 0 | PAK4 = 0 | PBK 0 | PDGFRB 0 | PDK1 = 0 | PDPK1 = 0 | PIK4CA 0 | PIK4CB 0 | PLK1 = 0 | PRKAA1 = 0 | PRKCA 0 | PTK2 = 0 | PTK2B 0 | RAF1 = 0 | [1] 0

CC1(N)CCN(c2cnc3c(-c4cccc(Cl)c4Cl)[nH]nc3n2)CC1 (2.5 µM)
inactive: MAPK1 = 0 | MAPK4 = 0 | MAPKAPK2 = 0 | MKNK1 = 0 | NTRK2 = 0 | NTRK3 = 0 | PAK4 = 0 | PBK 0 | PDGFRB 0 | PDK1 = 0 | PDPK1 = 0 | PIK4CA 0 | PIK4CB 0 | PLK1 = 0 | PRKAA1 = 0 | PRKCA 0 | PTK2 = 0 | PTK2B 0 | RAF1 = 0 | [1] 0

CN1CCN(CCCNc2ncc(Cl)c(-c3cc4c(C(=O)NC5CC5)cccc4s3)n2)CC1 (10 µM)
inactive: MAPK1 = 0 | MAPK4 = 0 | MAPKAPK2 = 0 | MKNK1 = 0 | NTRK2 = 0 | NTRK3 = 0 | PAK4 = 0 | PBK 0 | PDGFRB 0 | PDK1 = 0 | PDPK1 = 0 | PIK4CA 0 | PIK4CB 0 | PLK1 = 0 | PRKAA1 = 0 | PRKCA 0 | PTK2 = 0 | PTK2B 0 | RAF1 = 0 | [1] 0

CC1=C(CC(=O)O)c2cc(F)ccc2/C1=C\c1ccc(C(C)C)cc1 (10 µM)
inactive: MAPK1 = 0 | MAPK4 = 0 | MAPKAPK2 = 0 | MKNK1 = 0 | NTRK2 = 0 | NTRK3 = 0 | PAK4 = 0 | PBK 0 | PDGFRB 0 | PDK1 = 0 | PDPK1 = 0 | PIK4CA 0 | PIK4CB 0 | PLK1 = 0 | PRKAA1 = 0 | PRKCA 0 | PTK2 = 0 | PTK2B 0 | RAF1 = 0 | [1] 0

Nc1cc(C(F)F)c(-c2nc(N3C4CCC3COC4)nc(N3C4CCC3COC4)n2)cn1 (2.5 µM)
inactive: MAPK1 = 0 | MAPK4 = 0 | MAPKAPK2 = 0 | MKNK1 = 0 | NTRK2 = 0 | NTRK3 = 0 | PAK4 = 0 | PBK 0 | PDGFRB 0 | PDK1 = 0 | PDPK1 = 0 | PIK4CA 0 | PIK4CB 0 | PLK1 = 0 | PRKAA1 = 0 | PRKCA 0 | PTK2 = 0 | PTK2B 0 | RAF1 = 0 | [1] 0

Nc1[nH]c(=O)nc2c1ncn2[C@@H]1O[C@H](CO)[C@@H](O)[C@H]1O [Crotonoside] (10 µM)
inactive: MAPK1 = 0 | MAPK4 = 0 | MAPKAPK2 = 0 | MKNK1 = 0 | NTRK2 = 0 | NTRK3 = 0 | PAK4 = 0 | PBK 0 | PDGFRB 0 | PDK1 = 0 | PDPK1 = 0 | PIK4CA 0 | PIK4CB 0 | PLK1 = 0 | PRKAA1 = 0 | PRKCA 0 | PTK2 = 0 | PTK2B 0 | RAF1 = 0 | [1] 0

Cc1cc(Nc2cc(CN3CCOCC3)c3nc(C)c(Cc4ccc(Cl)cc4F)n3n2)n[nH]1 [Gandotinib] (2.5 µM)
inactive: MAPK1 = 0 | MAPK4 = 0 | MAPKAPK2 = 0 | MKNK1 = 0 | NTRK2 = 0 | NTRK3 = 0 | PAK4 = 0 | PBK 0 | PDGFRB 0 | PDK1 = 0 | PDPK1 = 0 | PIK4CA 0 | PIK4CB 0 | PLK1 = 0 | PRKAA1 = 0 | PRKCA 0 | PTK2 = 0 | PTK2B 0 | RAF1 = 0 | [1] 0

CC1=C(C(=O)Nc2ccc3[nH]ncc3c2)C(c2ccc(F)cc2)NC(=O)N1 (stereo not given) (10 µM)
inactive: MAPK1 = 0 | MAPK4 = 0 | MAPKAPK2 = 0 | MKNK1 = 0 | NTRK2 = 0 | NTRK3 = 0 | PAK4 = 0 | PBK 0 | PDGFRB 0 | PDK1 = 0 | PDPK1 = 0 | PIK4CA 0 | PIK4CB 0 | PLK1 = 0 | PRKAA1 = 0 | PRKCA 0 | PTK2 = 0 | PTK2B 0 | RAF1 = 0 | [1] 0
